Measurements: PMC9122528

B1: U2AF35 (protein, UniProt Q01081 1-240)
chain: MAEYLASIFGTEKDKVNCSFYFKIGACRHGDRCSRLHNKPTFSQTIALLNIYRNPQNSSQSADGLRCAVSDVEMQEHYDEFFEEVFTEMEEKYGEVEEMNVCDNLGDHLVGNVYVKFRREEDAEKAVIDLNNRWFNGQPIHAELSPVTDFREACCRQYEMGECTRGGFCNFMHLKPISRELRRELYGRRRKKHRSRSRSRERRSRSRDRGRGGGGGGGGGGGGRERDRRRSRDRERSGRF
B2: PRPF6 (protein, UniProt O94906 1-941)
chain: MNKKKKPFLGMPAPLGYVPGLGRGATGFTTRSDIGPARDANDPVDDRHAPPGKRTVGDQMKKNQAADDDDEDLNDTNYDEFNGYAGSLFSSGPYEKDDEEADAIYAALDKRMDERRKERREQREKEEIEKYRMERPKIQQQFSDLKRKLAEVTEEEWLSIPEVGDARNKRQRNPRYEKLTPVPDSFFAKHLQTGENHTSVDPRQTQFGGLNTPYPGGLNTPYPGGMTPGLMTPGTGELDMRKIGQARNTLMDMRLSQVSDSVSGQTVVDPKGYLTDLNSMIPTHGGDINDIKKARLLLKSVRETNPHHPPAWIASARLEEVTGKLQVARNLIMKGTEMCPKSEDVWLEAARLQPGDTAKAVVAQAVRHLPQSVRIYIRAAELETDIRAKKRVLRKALEHVPNSVRLWKAAVELEEPEDARIMLSRAVECCPTSVELWLALARLETYENARKVLNKARENIPTDRHIWITAAKLEEANGNTQMVEKIIDRAITSLRANGVEINREQWIQDAEECDRAGSVATCQAVMRAVIGIGIEEEDRKHTWMEDADSCVAHNALECARAIYAYALQVFPSKKSVWLRAAYFEKNHGTRESLEALLQRAVAHCPKAEVLWLMGAKSKWLAGDVPAARSILALAFQANPNSEEIWLAAVKLESENDEYERARRLLAKARSSAPTARVFMKSVKLEWVQDNIRAAQDLCEEALRHYEDFPKLWMMKGQIEEQKEMMEKAREAYNQGLKKCPHSTPLWLLLSRLEEKIGQLTRARAILEKSRLKNPKNPGLWLESVRLEYRAGLKNIANTLMAKALQECPNSGILWSEAIFLEARPQRRTKSVDALKKCEHDPHVLLAVAKLFWSQRKITKAREWFHRTVKIDSDLGDAWAFFYKFELQHGTEEQQEEVRKRCESAEPRHGELWCAVSKDIANWQKKIGDILRLVAGRIKNTF

Assays:
[1] = target: GFP-μ2 (μ2 protein of MRV T3D^S with an N-terminal GFP moiety) (Mammalian orthoreovirus serotype 3 strain Dearing (T3D^S)); assay: co-IP; GFP-tagged μ2 constructs transfected in 293T (24 h), lysate (1% Triton X-100, 150 mM NaCl, 20 mM Tris-HCl pH 7.5) DNAse and RNAse treated, GFP-Trap beads 4 h at 4°C, western blot of endogenous partners
[2] = target: μ2-GFP (μ2 protein of MRV T3D^S with a C-terminal GFP moiety) (Mammalian orthoreovirus serotype 3 strain Dearing (T3D^S)); assay: as above

Row | Binder | binding [1] | binding [2]
1 | B1 | no binding | no binding
2 | B2 | binds | binds

No constants are given. Whether binding was seen depends on the method and setting. Binding seen in cells or lysates may run through a third protein. A result given as binding can be weak or reduced; the word gives no strength.
